Results are given in words; binding and its absence hold for the method and conditions named. Some entries that bind do so weakly or less than the wild type.

Sequences of proteins named here, by UniProt entry; tags and fusion partners are left off. Residues count along the entry.
UniProt Q15389, residues 20-498: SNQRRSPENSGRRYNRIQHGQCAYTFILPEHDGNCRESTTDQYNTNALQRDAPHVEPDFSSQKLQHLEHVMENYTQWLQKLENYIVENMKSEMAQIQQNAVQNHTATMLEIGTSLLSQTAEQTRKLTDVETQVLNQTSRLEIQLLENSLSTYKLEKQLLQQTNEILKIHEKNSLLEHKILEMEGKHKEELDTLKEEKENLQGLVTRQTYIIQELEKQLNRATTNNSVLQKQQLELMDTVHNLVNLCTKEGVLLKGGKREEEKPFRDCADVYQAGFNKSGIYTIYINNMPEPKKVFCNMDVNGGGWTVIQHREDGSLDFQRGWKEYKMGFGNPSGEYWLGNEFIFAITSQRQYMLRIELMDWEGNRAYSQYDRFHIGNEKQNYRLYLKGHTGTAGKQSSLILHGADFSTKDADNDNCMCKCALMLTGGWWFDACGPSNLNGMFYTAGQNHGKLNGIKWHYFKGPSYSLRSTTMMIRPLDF

The target in the assay is hTie2-mFc (human). Description: Octet Red biosensor, hTie2.mFc captured on anti-mFc tips, 100 nM angiopoietin for 5 min; some tips first saturated with 300 nM H4H2055N or Control I. A general note: In BLI a coated tip is dipped into the sample, and binding shifts an interference pattern.

Take “hAng1 (from UniProt Q15389 20-498) (ligand)”: the binding entry is recorded as “binds”.

For the origin of these results see patent publication US20170174789A1.
